Laboratory results published in publication PMC10632352, “Nde1 promotes Lis1-mediated activation of dynein” (Nature Communications, 2023).
Results are given in words; binding and its absence hold for the method and conditions named.

T1: Lis1^83–410 (human) (UniProt P43034)
T1 sequence: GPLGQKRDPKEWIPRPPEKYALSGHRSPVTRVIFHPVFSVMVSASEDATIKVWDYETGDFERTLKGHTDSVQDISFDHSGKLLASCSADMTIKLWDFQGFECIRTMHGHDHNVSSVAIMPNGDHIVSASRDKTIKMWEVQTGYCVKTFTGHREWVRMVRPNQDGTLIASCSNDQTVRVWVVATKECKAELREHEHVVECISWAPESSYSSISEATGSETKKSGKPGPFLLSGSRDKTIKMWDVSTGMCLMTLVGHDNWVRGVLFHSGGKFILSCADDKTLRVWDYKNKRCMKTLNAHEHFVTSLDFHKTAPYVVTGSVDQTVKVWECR

T2: mtLis1 (dynein-binding mutant of Lis1, R316A and W340A) (human) (UniProt P43034)
T2 sequence (chain, LD555, or Alexa488 and biotin, on the SNAP tag in the colocalization assays): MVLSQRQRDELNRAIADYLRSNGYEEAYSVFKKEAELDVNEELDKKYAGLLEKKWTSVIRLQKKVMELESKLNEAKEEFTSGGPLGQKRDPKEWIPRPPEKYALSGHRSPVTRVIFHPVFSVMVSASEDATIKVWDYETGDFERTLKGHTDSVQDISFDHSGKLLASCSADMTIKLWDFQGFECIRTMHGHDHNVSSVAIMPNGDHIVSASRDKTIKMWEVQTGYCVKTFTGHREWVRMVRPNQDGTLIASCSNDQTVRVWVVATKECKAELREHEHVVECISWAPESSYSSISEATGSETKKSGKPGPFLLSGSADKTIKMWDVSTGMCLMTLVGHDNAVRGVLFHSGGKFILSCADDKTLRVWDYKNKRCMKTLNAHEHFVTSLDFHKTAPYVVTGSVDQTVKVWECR

B1: Nde1^1–190 (N-terminus of human Nde1) (domain or fragment, UniProt Q9NXR1 1-190, looked up)
chain: MEDSGKTFSSEEEEANYWKDLAMTYKQRAENTQEELREFQEGSREYEAELETQLQQIETRNRDLLSENNRLRMELETIKEKFEVQHSEGYRQISALEDDLAQTKAIKDQLQKYIRELEQANDDLERAKRATIMSLEDFEQRLNQAIERNAFLESELDEKENLLESVQRLKDEARDLRQELAVQQKQEKPR
modifications: LD555 dye in the analytical SEC
notes: Nde1, human, N-terminal coiled-coil, residues 1-190 (C-terminus truncated); also called Nde1^1–190-LD555; source: Sf9 (baculovirus, pOmniBac), purified (IgG Sepharose, TEV elution, Superdex 200 Increase SEC)
B2: human Nde1 (natural protein, UniProt Q9NXR1 1-335, looked up)
chain: MEDSGKTFSSEEEEANYWKDLAMTYKQRAENTQEELREFQEGSREYEAELETQLQQIETRNRDLLSENNRLRMELETIKEKFEVQHSEGYRQISALEDDLAQTKAIKDQLQKYIRELEQANDDLERAKRATIMSLEDFEQRLNQAIERNAFLESELDEKENLLESVQRLKDEARDLRQELAVQQKQEKPRTPMPSSVEAERTDTAVQATGSVPSTPIAHRGPSSSLNTPGSFRRGLDDSTGGTPLTPAARISALNIVGDLLRKVGALESKLASCRNLVYDQSPNRTGGPASGRSSKNRDGGERRPSSTSVPLGDKGLDTSCRWLSKSTTRSSSSC
modifications: LD655 or LD555 dye where labelled
notes: Nde1, human; Labelled through a SNAP or a ybbR tag; also called full-length Nde1; WT Nde1; source: Sf9 (baculovirus, pOmniBac), purified (IgG Sepharose, TEV elution, Superdex 200 Increase SEC)
B3: Lis1^83–410 (domain or fragment, UniProt P43034 83-410)
chain: T1 sequence
B4: α2 subunit of platelet activator factor acetylhydrolase 1B (PAF-AH1B) (enzyme, UniProt P68402 1-229)
chain: MSQGDSNPAAIPHAAEDIQGDDRWMSQHNRFVLDCKDKEPDVLFVGDSMVQLMQQYEIWRELFSPLHALNFGIGGDTTRHVLWRLKNGELENIKPKVIVVWVGTNNHENTAEEVAGGIEAIVQLINTRQPQAKIIVLGLLPRGEKPNPLRQKNAKVNQLLKVSLPKLANVQLLDTDGGFVHSDGAISCHDMFDFLHLTGGGYAKICKPLHELIMQLLEETPEEKQTTIA
modifications: Alexa488 in the analytical SEC; a dye in the colocalization assay

Tests used:
Lis1^83–410 (human) = target: T1, Lis1^83–410 (human); assay: mass photometry; proteins diluted to 5–20 nM in 30 mM HEPES pH 7.4, 5 mM MgSO4, 1 mM EGTA, 10% glycerol; Refeyn TwoMP; profiles fitted to multiple Gaussians; both purified
[1] = target: T2, mtLis1 (dynein-binding mutant of Lis1, R316A and W340A) (human); assay: as above
[2] = target: T2, mtLis1 (dynein-binding mutant of Lis1, R316A and W340A) (human); assay: co-IP; purified proteins mixed in MB buffer with 5 mg/ml BSA and 150 mM NaCl, GFP-Trap beads, 1 h on ice; fluorescence of labelled proteins on a denaturing gel; which protein carried GFP is not told; both purified

Binder	binding (Lis1^83–410 (human))	binding [1]	binding [2]
B1	no binding (tested: 5–20 nM)	no binding (tested: 5–20 nM)	
B2			no binding
B3	no binding (tested: 5–20 nM)		
B4		no binding (tested: 5–20 nM)	
